For some of these results: A negative result means that nothing was seen under these conditions. For some of these results: At least one verdict was read from the data and is not stated in words by the source. For some of these results: Where a protein sequence is shown, tags need not be part of it. For some of these results: The comparison behind a weaker result is the experiment's own reference, which may not be listed here. For some of these results: The exact form of at least one protein or probe is not confirmed.
What was measured:
[1] = target: GST-SDE2 KK K444A,K447A (human) (UniProt Q6IQ49); assay: EMSA; details: 50-200 nM protein, 20 nM DNA; EMSA: 10 mM Tris-HCl pH 7.5, 50 mM NaCl, 0.5 mM DTT, 0.05 mM EDTA, 3% glycerol, 0.05 mg/ml BSA (or 50 mM Na/K PO4 pH 6.0, 50 mM NaCl, 5 mM DTT), on ice; recombinant protein; residues 1-451; protein details: N-term GST; label: 5' 6-FAM; single-stranded DNA
[2] = target: T1, GST-SDE2 ΔCTT del428-451 (human) (UniProt Q6IQ49); assay: EMSA; details: 50-200 nM protein, 25 nM DNA; EMSA: 10 mM Tris-HCl pH 7.5, 50 mM NaCl, 0.5 mM DTT, 0.05 mM EDTA, 3% glycerol, 0.05 mg/ml BSA (or 50 mM Na/K PO4 pH 6.0, 50 mM NaCl, 5 mM DTT), on ice; recombinant protein; residues 1-427; protein details: N-term GST; label: 5' 6-FAM; single-stranded DNA
T1 sequence (looked up): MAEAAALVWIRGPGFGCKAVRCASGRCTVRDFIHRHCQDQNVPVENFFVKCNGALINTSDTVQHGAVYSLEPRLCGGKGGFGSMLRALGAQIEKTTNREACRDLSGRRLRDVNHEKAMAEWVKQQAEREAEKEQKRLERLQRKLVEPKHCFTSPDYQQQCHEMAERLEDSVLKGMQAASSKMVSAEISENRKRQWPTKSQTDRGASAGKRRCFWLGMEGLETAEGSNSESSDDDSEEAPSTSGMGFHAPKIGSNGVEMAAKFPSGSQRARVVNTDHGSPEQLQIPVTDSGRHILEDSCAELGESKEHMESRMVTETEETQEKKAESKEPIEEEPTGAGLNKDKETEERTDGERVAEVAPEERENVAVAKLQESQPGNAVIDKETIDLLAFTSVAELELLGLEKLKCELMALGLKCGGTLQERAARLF

[3] = target: T2, GST-SDE2-FLAG ΔSAP del395-427 (human) (UniProt Q6IQ49); assay: EMSA; details: EMSA: 10 mM Tris-HCl pH 7.5, 50 mM NaCl, 0.5 mM DTT, 0.05 mM EDTA, 3% glycerol, 0.05 mg/ml BSA (or 50 mM Na/K PO4 pH 6.0, 50 mM NaCl, 5 mM DTT), on ice, recombinant protein, residues 1-451, protein details: N-term GST, C-term FLAG
T2 sequence (looked up): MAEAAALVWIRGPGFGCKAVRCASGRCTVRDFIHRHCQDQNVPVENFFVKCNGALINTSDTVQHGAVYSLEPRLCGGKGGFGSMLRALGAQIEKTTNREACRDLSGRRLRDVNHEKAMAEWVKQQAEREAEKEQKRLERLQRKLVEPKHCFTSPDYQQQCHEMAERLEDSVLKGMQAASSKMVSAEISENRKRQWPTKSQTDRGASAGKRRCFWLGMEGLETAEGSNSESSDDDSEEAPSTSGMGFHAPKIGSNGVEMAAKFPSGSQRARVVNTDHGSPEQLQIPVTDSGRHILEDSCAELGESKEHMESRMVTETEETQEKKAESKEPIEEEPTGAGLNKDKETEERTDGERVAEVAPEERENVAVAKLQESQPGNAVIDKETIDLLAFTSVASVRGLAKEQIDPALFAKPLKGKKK

[4] = tested on: iron-responsive protein (IRP); assay: EMSA; details: EMSA: 10 mM Tris-HCl pH 7.5, 50 mM NaCl, 0.5 mM DTT, 0.05 mM EDTA, 3% glycerol, 0.05 mg/ml BSA (or 50 mM Na/K PO4 pH 6.0, 50 mM NaCl, 5 mM DTT), on ice, commercial protein
GST-SDE2SAP (human) [5] = target: GST-SDE2SAP (human) (UniProt Q6IQ49); assay: EMSA; details: free-probe loss; EMSA: 10 mM Tris-HCl pH 7.5, 50 mM NaCl, 0.5 mM DTT, 0.05 mM EDTA, 3% glycerol, 0.05 mg/ml BSA (or 50 mM Na/K PO4 pH 6.0, 50 mM NaCl, 5 mM DTT), on ice; recombinant protein; residues 350-451; protein details: N-term GST; label: 5' 6-FAM on strand 1
GST-SDE2SAP (human) [6] = target: GST-SDE2SAP (human) (UniProt Q6IQ49); assay: fluorescence anisotropy; details: barely above background, no plateau, Kd not calculated; anisotropy: 50 mM Na/K PO4 pH 6.0, 50 mM NaCl, 5 mM DTT, 1 uM DNA; recombinant protein; residues …; protein details: N-term GST; label: 5' 6-FAM on strand 1
GST-SDE2-FLAG WT (human) = GST-SDE2-FLAG WT (human) (UniProt Q6IQ49); assay: EMSA; details: EMSA: 10 mM Tris-HCl pH 7.5, 50 mM NaCl, 0.5 mM DTT, 0.05 mM EDTA, 3% glycerol, 0.05 mg/ml BSA (or 50 mM Na/K PO4 pH 6.0, 50 mM NaCl, 5 mM DTT), on ice; recombinant protein; residues 1-451; protein details: N-term GST, C-term FLAG; label: 5' 6-FAM on strand 1
[7] = 200 nM protein, 50 nM DNA, label: 5' 6-FAM on strand 1

GACGCTGCCGAATTCTACCAGTGCCTTGCTAGGACATCTTTGCCCACCTGCAGGTTCACCC [60-mer ssDNA (EMSA1)]
binding result [1]: binds more weakly
binding result [2]: binds more weakly
binding result ([3]; 50-200 nM protein, 25 nM DNA, abrogation complete only when CTT is also deleted, label: 5' 6-FAM, single-stranded DNA): binds more weakly
binding result ([4]; label: 5' 6-FAM, single-stranded DNA): no binding

UCCUGCUUCAACAGUGCUUGGACGGAAC [IRE RNA]
binding result ([4]; competed by 1 uM unlabeled IRE RNA, label: 3' biotin): binds

GACGCTGCCGAATTCTACCAGTGCCTTGCTAGGACATCTTTGCCCACCTGCAGGTTCACCC (double strand) [60-mer dsDNA (EMSA1/EMSA2)]
binding result [3, 7]: no binding
binding result (GST-SDE2SAP (human) [5]): binds more weakly
binding result (GST-SDE2SAP (human) [6]): binds more weakly

GACGCTGCCGAATTCTACCAGTGCCTTGCTAGGACATCTTTGCCCACCTGCAGGTTCACCC / ATCGATAGTCGGATCCTCTAGACAGCTCCATGTAGCAAGGCACTGGTAGAATTCGGCAGCGT [splayed-arm DNA (EMSA1/EMSA5)]
binding result (GST-SDE2-FLAG WT (human)): binds
binding result [3, 7]: no binding
